# Assay results published in the supplement of paper PMC3334620.
# In all, about 33,000 sequences were measured (“E-score (-0.5 to 0.5)”: median about -0.0059, highest 2% from about 0.26 on). Some of the results follow.
# Target: T1, Cin5 (UniProt P40917)
# T1 sequence: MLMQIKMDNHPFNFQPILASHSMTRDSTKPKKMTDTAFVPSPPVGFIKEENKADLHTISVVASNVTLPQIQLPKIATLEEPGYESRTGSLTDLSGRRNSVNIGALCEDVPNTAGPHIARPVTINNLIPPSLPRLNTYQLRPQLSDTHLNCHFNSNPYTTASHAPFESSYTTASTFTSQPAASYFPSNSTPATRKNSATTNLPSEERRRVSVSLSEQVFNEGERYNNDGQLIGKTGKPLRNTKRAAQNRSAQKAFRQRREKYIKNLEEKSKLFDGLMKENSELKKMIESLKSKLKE
# Assay: PBM E-score (8-mer binding enrichment) (E-score (-0.5 to 0.5)); higher = stronger / more preferred TF binding
# Settings: protein concentration: 100 nM; construct: GST-full length
# Summary of the method: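 Yeast transcription factors carrying a GST tag, as full-length proteins or DNA-binding domains, were produced by PURExpress in vitro transcription/translation. About 100-200 nM protein was applied to universal all-10-mer Agilent arrays, double-stranded by primer extension on fresh or once-stripped slides. Bound protein was detected with fluorescent anti-GST, and scans were normalised with masliner. The Universal PBM Analysis Suite gave each ungapped eight-base word, pooled with its reverse complement, an E-score, a modified Wilcoxon-Mann-Whitney statistic.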
row,Sequence,PBM E-score
1,ACATAGCC,0.191
2,AGCCGACC,-0.252
3,CATTAGCC,0.0429
4,CCACTGAA,0.121
5,CGTTGAAA,-0.0492
6,GCGTAAAA,0.121
7,ATGCGATG,-0.0493
8,GCTCTCTA,-0.158
9,ACGAGATG,0.0151
10,TCACCAAA,0.177
11,CTTTTAGC,-0.0723
12,GGATGATA,0.176
13,AACTCTAA,0.0833
14,CTGGCCAG,-0.0982
15,CTCTAAAC,0.0208
16,GCGAGCAA,0.0907
17,CGCAAATC,0.0229
18,CGACTGTC,-0.116
19,CGCCGCAC,-0.168
20,AAGCCTGT,0.053
21,CTGCCACA,-0.139
22,CGCGCCCG,-0.196
23,ACGCTCAA,0.0916
24,AGCACAAG,-0.189
25,AGATCCGA,-0.0473

row,Sequence,PBM E-score
1,ATTTCCGC,0.162
2,CGAGAGCA,0.0311
3,AGACCGGA,-0.18
4,ATCCCCTA,0.0975
5,AATTTCCC,0.108
6,CTTGAAAA,0.0761
7,AACCGGTC,-0.0963
8,CAGGCTAA,-0.0999
9,CGAAAACA,0.0113
10,GTTACCTA,0.131
11,TGCATACA,0.212
12,CGGTACTA,-0.148
13,GTAGTCTA,-0.0101
14,CTACTAAG,0.144
15,TAAATTGA,0.198
16,ATCCCGAA,0.215
17,AATGTTCT,-0.0398
18,AGAGCATG,-0.157
19,AGTAAACT,0.174
20,AAATAGGT,0.0939
21,AGCGCGTA,0.169
22,GCGGACGA,-0.0492
23,ACCTGAAG,-0.0798
24,AAGTCATG,0.148
25,AAATGAGA,0.128

row,Sequence,PBM E-score
1,CACTGAGA,-0.149
2,ACACATTC,0.0349
3,CGGCAGAG,-0.302
4,AATCGTTG,0.178
5,AGAGGGAA,-0.327
6,CCGCAACC,0.00116
7,AACCGGGT,-0.0685
8,ACACAGAA,0.0946
9,CAGGTCAG,0.0249
10,GCAGGTCA,-0.0653
11,AAGCAGCC,0.0577
12,GGAAACGA,0.0835
13,AATGCCAT,0.142
14,AACCGGTT,0.105
15,TCCGCCGA,-0.0241
16,AGAATTAA,-0.0547
17,ACGCTCTC,-0.12
18,TCATATGA,0.272
19,GGTATCTA,0.0109
20,CTAACGTA,0.169
21,GTAATTAA,0.13
22,AGAGTGAC,-0.142
23,CGTTGAGA,0.0252
24,AGGCTTTC,0.0432
25,ACAACTTG,0.0528

# Part of the list above in a different format:
row	Sequence	PBM E-score
8	ACACAGAA	0.0946
9	CAGGTCAG	0.0249

# (list continues)

row,Sequence,PBM E-score
1,ACTATTGG,-0.0556
2,CTATGTCA,-0.053
3,CCTAATGA,-0.00784
4,ACCCTTGC,-0.17
5,ACACCACA,0.0779
6,ACGGCAAC,-0.0668
7,GATTATGC,0.172
8,GATATAAA,0.0539
9,CCCGAGCG,-0.0798
10,AAGAACCT,-0.00163
11,ATGGAATG,0.0923
12,AACGCACC,-0.0357
13,ACTGTATC,-0.119
14,ATCTTCGC,0.0925
15,AAAAGGGG,-0.269
16,GGAAATAA,0.24
17,ATACAGTC,-0.142
18,CGCCATCA,-0.202
19,GGGGTGTA,-0.208
20,CGGGTTAA,0.0216
21,CATGACGG,0.0087
22,AGCACCTA,-0.147
23,CATTACAG,0.074
24,AGGCATAG,-0.135
25,CCCCGGCA,-0.118

# A few values from the results shown:
# PBM E-score, ACACAGAA is entered as 0.0946
# PBM E-score, ATCCCGAA is entered as 0.215
# PBM E-score, AAGAACCT is entered as -0.00163
# PBM E-score, ATACAGTC is entered as -0.142
# PBM E-score, CAGGCTAA is entered as -0.0999
# PBM E-score, GCGGACGA is entered as -0.0492
# PBM E-score, AGAGCATG is entered as -0.157

# Additional results follow.

row,Sequence,PBM E-score
1,ATAGGTGC,0.0881
2,TCGTAGAA,-0.0789
3,CGAGATAA,0.255
4,ATAGCGTG,0.00691
5,ATTGATTC,0.128
6,ACACATGA,0.0642
7,ACCGTCTG,-0.246
8,TCAACTGA,0.0795
9,AAATGGTG,0.0995
10,AGGATAGC,-0.064
11,AACAGAAC,0.0567
12,AGGCTCTG,-0.194
13,TAGAAGGA,-0.321
14,CACCTTAC,0.035
15,CCGGGCCG,-0.221
16,TATCCAGA,-0.0243
17,ATGGGTGA,-0.0864
18,CCGACACG,-0.177
19,CTCTCTAC,0.0268
20,GGGCACCA,-0.267
21,CGGTCGCA,-0.24
22,GTTCCACA,-0.0911
23,CACGCCGA,0.00016
24,ATACGTAA,0.386
25,CCAACCAG,-0.184

row,Sequence,PBM E-score
1,CGCAGGCA,-0.149
2,CAAATGGG,0.0286
3,GGAGCCAC,-0.201
4,ACTATTAT,0.137
5,CCGCTGCG,-0.073
6,ACTGGTTC,-0.0164
7,ATCGAGCA,0.0127
8,ATGGTCTC,-0.00291
9,AATAGATA,0.269
10,GTCACGTA,-0.124
11,CTCGCGAG,0.0707
12,AATGTTGT,0.124
13,CGTCACGA,-0.0379
14,CTCTCCCC,-0.26
15,CGGCTACA,-0.132
16,GCTTTTCA,-0.00236
17,AGGCACTC,-0.2
18,AATCCGGG,0.0445
19,ACCCTGTC,-0.154
20,AGTAAGTA,0.227
21,CGGTCCCA,-0.214
22,CCGGCGAA,0.123
23,AATGTAAT,0.301
24,AGAACGCC,-0.116
25,CCGCGTCC,-0.014

row,Sequence,PBM E-score
1,GATTAACC,-0.142
2,AATGCAAA,0.275
3,GGCATGAA,-0.00857
4,ACACCCTG,-0.142
5,AATTCTCG,0.1
6,CCCCCGTC,-0.435
7,GGACGTCA,0.0529
8,GGCATCTA,-0.0103
9,ATTCTTAG,-0.0605
10,ACAAACTA,0.141
11,GCTACTCC,-0.0765
12,CTGTAAAA,-0.0113
13,ACAGTATA,0.17
14,GATCTGGA,-0.125
15,AGCTCGAT,0.116
16,GAAGCTAA,-0.0121
17,GCTATCAA,0.0779
18,AGGTTATG,0.154
19,AACAAATC,0.161
20,TGTCTCAA,-0.033
21,GTCTACCA,-0.154
22,CGCGCGTA,0.0312
